Record: PubChem BioAssay AID504784 (Drosophila RNAi Screening Center, 2011)
The deposit covers about 17,000 reagents; below is a random part of those with a known target gene and a result. 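Each column is one replicate's B-score; the combined score over replicates was not deposited, so single values may mislead.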 A plus sign joins genes that one reagent is predicted to hit. Reagent sequences are not shown.

Aim: 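Search for regulators of lipid droplet storage in oleate-fed fly cells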 (primary screen)
Cell system: Drosophila Kc167 embryonic cells
Reagents: long dsRNA against Drosophila genes, about 250 ng dsRNA per well
Timing: 4 days
Challenge: cells fed 400 µM oleic acid bound to BSA
Detection: 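Cells imaged and segmented; ratio of lipid droplet area to nuclear area, log-transformed, then normalised as a B-score over the screen; higher means more stored lipid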
Direction: droplet/nuclear area B-score: higher = more stored lipid (overstorage)

gene | amplicon | droplet/nuclear area B-score, replicate 1 | droplet/nuclear area B-score, replicate 2 | droplet/nuclear area B-score, replicate 3
CG11560 | DRSC09843 | -0.675 | 0.893 | –
Apc | DRSC14114 | -0.26 | -1.45 | –
Lrch | DRSC02996 | 0.0527 | 0.391 | –
Dhx15 | DRSC06036 | -3.37 | -1.7 | –
CG4409 | DRSC06869 | -1.55 | -0.754 | –
Ykt6 | DRSC17970 | 1.62 | 1.05 | -0.187
l(3)neo43 | DRSC14988 | -0.788 | -0.11 | –
CG32814 | DRSC17670 | -2.92 | -2.36 | –
CG3515 | DRSC00609 | -1.23 | -0.812 | –
CG31788 | DRSC01630 | 1.27 | 0.209 | –
CG32459 | DRSC11852 | -0.484 | 0.779 | –
CG13983 | DRSC02315 | -0.146 | -0.588 | –
CG15784 | DRSC18090 | -1.82 | -3.02 | –
LRR | DRSC06444 | -0.0138 | 0.34 | –
CG17404 | DRSC15234 | 0.469 | 1.5 | 0.0865
ppk19 | DRSC15321 | 0.638 | -0.166 | –
CG8281 | DRSC10976 | 0.718 | 0.743 | –
CG7840 | DRSC03075 | 0.317 | 0.106 | –
Or85e (retired record) | DRSC16768 | -2.09 | -0.919 | –
mip120 | DRSC06960 | 0.907 | 0.942 | –
4E-T | DRSC17201 | -0.0411 | – | –
4E-T | DRSC17208 | 2.12 | 0.78 | –
CG33998 | DRSC05747 | 0.603 | 1.06 | –
Ppm1 | DRSC08260 | 0.689 | -0.715 | –
CG4592 | DRSC02761 | 0.00127 | 0.248 | –
kdn | DRSC18328 | 1.23 | 1.65 | –
CG14903 | DRSC15024 | -0.0637 | -3.48 | –
CG5509 | DRSC15822 | 0.3 | 0.857 | –
Grl36b | DRSC01627 | -0.103 | -0.0116 | –
Gmppb | DRSC12169 | -2.67 | 2.21 | –
CG3663 | DRSC04402 | 0.445 | -0.148 | –
DopEcR | DRSC08529 | -1.13 | -1.24 | –
CG13070 | DRSC09953 | 0.264 | -0.235 | –
Kat60 | DRSC12378 | 0.863 | -0.282 | –
swa | DRSC18842 | -0.444 | 0.303 | -0.949
CG13409 | DRSC14585 | -0.816 | 0.627 | –
CG1620 | DRSC06603 | -3.33 | -0.232 | –
CG9970 | DRSC08644 | -0.0594 | 1.6 | –

Copied from the entries so far (13 entries):
gene | amplicon | droplet/nuclear area B-score, replicate 1 | droplet/nuclear area B-score, replicate 2 | droplet/nuclear area B-score, replicate 3
CG8281 | DRSC10976 | 0.718 | 0.743 | –
CG7840 | DRSC03075 | 0.317 | 0.106 | –
Or85e (retired record) | DRSC16768 | -2.09 | -0.919 | –
mip120 | DRSC06960 | 0.907 | 0.942 | –
4E-T | DRSC17201 | -0.0411 | – | –
4E-T | DRSC17208 | 2.12 | 0.78 | –
CG33998 | DRSC05747 | 0.603 | 1.06 | –
Ppm1 | DRSC08260 | 0.689 | -0.715 | –
CG4592 | DRSC02761 | 0.00127 | 0.248 | –
kdn | DRSC18328 | 1.23 | 1.65 | –
CG14903 | DRSC15024 | -0.0637 | -3.48 | –
CG5509 | DRSC15822 | 0.3 | 0.857 | –
Grl36b | DRSC01627 | -0.103 | -0.0116 | –

The list goes on:
gene | amplicon | droplet/nuclear area B-score, replicate 1 | droplet/nuclear area B-score, replicate 2 | droplet/nuclear area B-score, replicate 3
caz | DRSC20317 | -0.277 | 1.88 | 1.2
caz | DRSC22594 | -2.57 | -2.77 | –
caz | DRSC23280 | -1.64 | -0.145 | –
EMC4 | DRSC11638 | 1.08 | 1.56 | –
CG4597 | DRSC10432 | -0.805 | -0.859 | –
dmrt11E | DRSC19715 | 0.761 | 0.738 | 0.277
BomS4 | DRSC22509 | -1.11 | -0.718 | –
RhoGAP5A | DRSC18294 | -1.7 | -0.544 | 0.0955
p38a | DRSC16743 | 0.169 | -1.19 | –
Dyrk2 | DRSC03610 | -0.428 | -0.255 | –
dare + CG30033 | DRSC22908 | 0.00933 | -0.0196 | –
Wdfy2 | DRSC02822 | -3.04 | -0.162 | –
CG11927 | DRSC00337 | 0.58 | 0.595 | –
Polr1D + DCTN6-p27 | DRSC02094 | -0.721 | 0.374 | –
Rip11 | DRSC20000 | -0.448 | -1.29 | –
CG5004 | DRSC19929 | 3.26 | -0.0253 | –
CG5004 | DRSC19930 | 2.91 | 0.399 | –
CG5004 | DRSC20123 | -1.16 | – | –
Vps20 | DRSC04448 | -0.712 | 6.17 | –
CR40450 + CG32767 | DRSC18387 | 2.3 | 0.0746 | 1.67
Syx6 | DRSC07032 | 0.117 | – | –
fne | DRSC20332 | 0.797 | 0.961 | 0.699
fne | DRSC22418 | -1.09 | -0.672 | –
CG15210 | DRSC19656 | -1.11 | 0.469 | -0.739
CG14931 | DRSC02413 | -3.73 | -0.353 | –
CG11608 | DRSC14334 | -1.47 | -0.827 | –
ebo | DRSC18787 | 1.45 | – | –
CG42502 + CG10570 | DRSC02071 | 0.287 | -0.0643 | –
Mkk4 | DRSC16739 | -1.57 | -1.32 | –
kay | DRSC13962 | -0.0905 | -0.674 | –
kay | DRSC15048 | -0.311 | -3.87 | –
kay | DRSC16977 | -0.422 | -0.688 | –
CG18788 | DRSC02697 | 1.9 | 0.554 | –
lectin-30A | DRSC02560 | 2.2 | 1.92 | –
hang | DRSC19901 | 0.341 | 1.4 | 2.33
hang | DRSC19902 | 1.04 | -0.571 | –
hang | DRSC23216 | 0.349 | -0.0343 | –
ro | DRSC17046 | -0.193 | 0.534 | –
Polr2L | DRSC14630 | 1.91 | -0.0558 | –
Lip4 | DRSC02930 | 0.613 | -0.296 | –
Osi19 | DRSC12569 | 2.77 | 2.4 | –
CG12590 | DRSC12216 | 1.04 | 1.33 | –
loqs | DRSC02997 | -1.3 | 0.0502 | –
Pgls | DRSC19769 | -2.49 | -0.542 | 0.562
CG3107 | DRSC04888 | -1.15 | -1.2 | –
Rab11 | DRSC16809 | 1.59 | 0.606 | –
CG32163 | DRSC09442 | -0.263 | -0.678 | –
CG13698 | DRSC10047 | -2.03 | -0.153 | -0.716
nub | DRSC02498 | 0.017 | -0.286 | –
nub | DRSC02499 | 4.31 | 3.05 | –
nub | DRSC03583 | -1.73 | -0.27 | –
nub | DRSC23066 | 0.698 | 1.72 | –
CG5510 | DRSC15823 | -0.234 | 0.0309 | –
CAH14 | DRSC04234 | 1.21 | -0.715 | –
CAH14 | DRSC22160 | -0.0732 | -0.744 | –
zuc | DRSC02160 | -0.333 | -0.424 | –
IntS2 | DRSC20094 | 2.47 | 0.442 | –
CG4328 | DRSC10410 | -2.79 | -1.75 | –
CG4328 | DRSC23146 | 0.735 | -0.0182 | –
Syx5 | DRSC03432 | -0.788 | 1.38 | –
CG32706 + CG6999 | DRSC18412 | -0.917 | -0.987 | -1.23
nmdyn-D6 | DRSC20355 | 0.282 | -0.773 | –
CG2681 | DRSC18464 | -0.118 | 2.71 | –
mRpL46 | DRSC08391 | 0.0424 | 3.62 | –
Capr | DRSC10346 | -0.883 | -1 | –
CG13970 | DRSC02311 | -2.36 | 2.21 | –
CG11134 | DRSC19384 | -0.653 | -0.518 | –
